According to ChEMBL document CHEMBL1129436, “Novel peptidyl alpha-keto amide inhibitors of calpains and other cysteine proteases” (J Med Chem, 1996):

Species: Rattus norvegicus
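Also: measured as membrane permeability of platelets.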

## CCC(NC(=O)C(CC(C)C)NC(=O)C(c1ccccc1)c1ccccc1)C(=O)C(=O)NCCCN1CCOCC1 (stereo unspecified)
  IC: 82 µM
